Test results from patent US5780590A (Rhone-Poulenc Rorer Pharmaceuticals Inc., priority 1996, dated 1998).

Assay: general procedure: solution-phase peptide synthesis; TBTU
Settings: coupling step

| Substance | final HPLC purity (HPLC (A %)) | step yield (theoretical yield) | step yield |
| --- | --- | --- | --- |
| CBZ-PipBu-N(Et)Gly-(L)-Asp(OBzl)-(L)-Cha-NH2 | >99 A % | 84% |  |
| CBZ-PipBuen-N(Et)Gly-(L)-Asp(OBzl)-(L)-Cha-NH2 |  |  | 83% |
